For this experiment, the target named is CB2 (UniProt P34972). As to the kind of experiment: log2 fold change of tryptic peptide abundance, ligand vs vehicle (limited proteolysis) (log2 ratio); higher = more trypsin-susceptible (destabilized). The conditions noted are these: peptide sequence: KCVRGLGSEAK; peptide start residue: 319; ligand concentration: 5 uM; sample: K562 cleared lysate.

Protein sequences, listed by entry. Tags and fused reporters are not part of them.
UniProt P34972, whole entry: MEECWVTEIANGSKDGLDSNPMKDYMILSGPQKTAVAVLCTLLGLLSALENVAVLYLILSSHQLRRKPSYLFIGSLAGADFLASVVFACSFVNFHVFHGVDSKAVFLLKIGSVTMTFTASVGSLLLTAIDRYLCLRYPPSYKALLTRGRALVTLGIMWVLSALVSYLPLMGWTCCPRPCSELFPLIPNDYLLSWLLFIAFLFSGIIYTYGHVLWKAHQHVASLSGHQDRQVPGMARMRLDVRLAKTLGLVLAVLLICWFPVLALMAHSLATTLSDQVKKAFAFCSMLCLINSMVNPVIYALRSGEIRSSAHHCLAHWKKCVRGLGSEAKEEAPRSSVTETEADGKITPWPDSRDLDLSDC

From the supplement of paper PMC12819154, “High-throughput peptide-centric local stability assay extends protein–ligand identification to membrane proteins, tissues and bacteria” (Nature Structural & Molecular Biology, 2025) come the findings set out here.

This is one part of the list. Most values lie at the level of the controls, where differences are scatter.

Regarding `Cc1nc(Nc2ncc(C(=O)Nc3c(C)cccc3Cl)s2)cc(N2CCN(CCO)CC2)n1` [dasatinib], the log2 fold change stood at 0.0667.
